These are yes or no findings as the source states them, for the method shown.
Target: pooled human transferrin (Sigma), biotinylated (human) (UniProt P02787)
Experiment: SPR Biacore A-100, purified peptide at several concentrations; purified (HPLC) peptide, re-screened at several concentrations

By UniProt entry, the sequences of proteins in these tests, tags left out. Residues count along the entry.
UniProt P02787, residues 20-698: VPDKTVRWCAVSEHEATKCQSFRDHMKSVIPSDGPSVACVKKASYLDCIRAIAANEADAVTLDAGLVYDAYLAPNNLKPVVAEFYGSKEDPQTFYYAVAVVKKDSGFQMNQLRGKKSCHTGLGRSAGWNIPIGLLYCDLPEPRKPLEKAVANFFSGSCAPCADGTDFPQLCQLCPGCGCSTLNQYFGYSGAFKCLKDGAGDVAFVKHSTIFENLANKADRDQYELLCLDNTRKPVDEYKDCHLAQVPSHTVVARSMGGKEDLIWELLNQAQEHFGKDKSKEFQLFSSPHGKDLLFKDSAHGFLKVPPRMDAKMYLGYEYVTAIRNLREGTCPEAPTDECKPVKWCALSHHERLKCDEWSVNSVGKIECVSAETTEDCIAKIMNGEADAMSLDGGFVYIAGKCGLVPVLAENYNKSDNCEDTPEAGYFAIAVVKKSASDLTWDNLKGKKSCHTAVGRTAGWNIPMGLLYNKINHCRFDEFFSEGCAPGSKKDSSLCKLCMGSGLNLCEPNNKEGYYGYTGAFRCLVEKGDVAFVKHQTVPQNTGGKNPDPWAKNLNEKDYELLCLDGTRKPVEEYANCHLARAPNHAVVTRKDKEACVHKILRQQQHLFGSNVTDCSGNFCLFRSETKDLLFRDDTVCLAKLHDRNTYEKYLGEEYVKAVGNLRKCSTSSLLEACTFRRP

binding: no binding
Binder: NQYVPIFSQPEDPVQQEGSC [TRF102]

From patent US20120065123A1, “Synthetic Antibodies” (priority 2009, published 2012)
